Out of some 400,000 compounds screened, about 13,000 (3.2%) were called active. Inconclusive results, whose numbers are uncertain, are shown with a selection of clear calls. Calls come from the whole dose curve; as a rule, active = well fitted cell-killing curve with a large enough effect; inconclusive = small, poorly fitted or top-dose-only effect, or effect the other way; inactive = flat fitted curve, though single readings scatter. Potencies beside an inconclusive call are fits to weak or partial responses and may not hold up.
Assay: qHTS assay for MDR1-selective chemotherapeutics: Primary screen using the drug-selected MDR subline cells KB-V1; note: nearly all actives have a fitted effect of over 60% in size
Conditions: KB-V1 MDR cells viability, CellTiter-Glo, 72 h; activity change, negative = cytotoxicity: at 46.1 µM (top of the series)
How it was run: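 KB-V1 MDR subline cells in DMEM (phenol-red free, 10% FBS) exposed to compounds in qHTS concentration series for 72 h at 37 degrees C. Viability read by CellTiter-Glo luminescence; concentration-effect curves fitted after normalization and correction.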
% is set by controls: 0 for no effect and ±100 for the full control effect; potency is the fitted concentration of half-maximal effect.

Row | Structure (SMILES) | activity change, negative = cytotoxicity | Potency
1 | Cc1ccc(CNC(=O)Cn2ncc3c(C)n(Cc4ccc(Cl)cc4)c(C)c3c2=O)cc1 | inactive: -10% | –
2 | COc1ccc(C(=O)Nc2ccc3ccccc3c2)cc1OC | inactive: -15.4% | –
3 | CCOC(=O)c1cn(CC)c2c(ccc3ccccc32)c1=O | – | inconclusive: 9.2 µM [cytotoxic, partial curve]
4 | COc1ccc(COc2cc(-c3cccc(OC)c3)nc3ccc(NC(=O)c4cccnc4)cc23)cc1 | – | inconclusive: 23.1 µM [cytotoxic, single point]
5 | O=C(Nc1cccc(Cl)c1)Nc1ccccc1C(=O)O | – | inconclusive: 2.91 µM [cytotoxic, full curve, poor fit]
6 | N#Cc1c(N)[nH]c2ccc(Sc3ccccc3)cc12 | – | active: 3.26 µM
7 | O=C(COC(=O)c1ccc[nH]c1=O)NCCCc1ccccc1 | – | inconclusive: 29.1 µM [rising, single point]
8 | COc1ccc(Cl)cc1NC(=O)c1nnn(CC(=O)Nc2ccc3c(c2)OCO3)c1N | – | inconclusive: 29.1 µM [rising, single point]
9 | O=C(CN1C(=O)NC2(CCCC2)C1=O)OCCOc1ccc(F)cc1 | – | inconclusive: 29.1 µM [rising, single point]
10 | CCOc1ccc(/C=C/c2c([N+](=O)[O-])c(=O)n(C)c(=O)n2C)cc1 | – | inconclusive: 5.8 µM [cytotoxic, full curve, poor fit]
11 | O=C(c1cccs1)C1C(c2ccc(Br)cc2)NC(=S)NC1(O)C(F)(F)F (stereo not drawn) | – | active: 20.6 µM
12 | CCOC(=O)C(=CNc1cc(C)ccc1[N+](=O)[O-])C(=O)OCC | – | inconclusive: 2.31 µM [cytotoxic, partial curve, poor fit]
13 | CCOC(=O)N1CCC(NC(=O)c2ccc3nc(N4CCOCC4)sc3c2)CC1 | – | active: 3.66 µM
14 | CN(C)CCNc1ncnc2c1ncn2[C@H]1CN(Cc2ccc(F)cc2)C[C@@H](CO)O1 | inactive: 0% | –
15 | O=C1CN(C(=O)c2cc(Br)c(Br)s2)c2ccccc2N1 | – | inconclusive: 2.91 µM [cytotoxic, full curve, poor fit]
16 | CCS(=O)(=O)c1ccc(C(=O)Nc2ccccc2)c(Cl)c1Cl | – | inconclusive: 29.1 µM [cytotoxic, single point]
17 | Cc1cc(=O)oc2cc(OC(=O)c3ccco3)ccc12 | – | inconclusive: 11.6 µM [rising, partial curve, poor fit]
18 | CCNC(=O)/C(C#N)=C/c1c(N2CCN(C)CC2)nc2c(C)cccn2c1=O | inactive: 10.8% | –
19 | CCOc1ccc(NC(=O)CCNS(=O)(=O)c2ccc(Br)s2)cc1 | – | inconclusive: 2.91 µM [cytotoxic, partial curve, poor fit]
20 | Cc1cccc(C)c1-n1nnnc1C(c1ccnc2ccccc12)N(C)Cc1ccc(Cl)c(Cl)c1 (stereo not drawn) | – | inconclusive: 16.4 µM [cytotoxic, partial curve]
21 | COCC(=O)N(Cc1cc2ccc(C)cc2[nH]c1=O)c1ccc(C)cc1C | – | inconclusive: 0.92 µM [cytotoxic, full curve]
22 | Cc1snc(S(=O)(=O)Cc2ccccc2Cl)c1C#N | – | inconclusive: 14.6 µM [cytotoxic, partial curve, poor fit]

Row | Structure (SMILES) | activity change, negative = cytotoxicity | Potency
23 | CC1(C)Cc2c(C#N)c(SCC(=O)c3ccccc3)nc(N3CCOCC3)c2CS1 | inactive: -6.22% | –
24 | COc1ccc(NC(=O)COC(=O)c2ccc(S(=O)(=O)N3CCCC3)cc2)cc1OC | – | inconclusive: 2.59 µM [rising, full curve, poor fit]
25 | O=C(CSc1ccc(S(=O)(=O)N2CCCCC2)cn1)Nc1ccccc1Br | – | inconclusive: 29.1 µM [cytotoxic, single point]
26 | COc1ccc(NC(=O)CC(c2ccc(F)cc2)c2ccc(OC)cc2)cc1 (stereo not drawn) | – | inconclusive: 4.11 µM [cytotoxic, full curve]
27 | COc1cc(/C=N/NC(=O)c2sc3ccccc3c2Cl)ccc1OC(=O)c1ccc([N+](=O)[O-])cc1 | inconclusive: -7.38% | –
28 | CCCn1c(SCC(=O)Nc2nccs2)nnc1-c1cccnc1 | – | inconclusive: 5.8 µM [rising, partial curve, poor fit]
29 | CCOc1ccc(C(=O)NCC(c2ccco2)S(=O)(=O)c2ccc(C)cc2)cc1 (stereo not drawn) | inactive: -23.6% | –
30 | CSc1ccc(CN(C)C(=O)c2ccc(S(=O)(=O)Nc3ccccc3)cc2)cc1 | – | inconclusive: 25.9 µM [cytotoxic, single point]
31 | O=[N+]([O-])c1ccccc1S(=O)(=O)N1CCN(Cc2ccc3c(c2)OCO3)CC1 | – | inconclusive: 29.1 µM [cytotoxic, single point]
32 | Cc1cccc(-c2noc(CCCC(=O)NC3CCCCC3)n2)c1 | – | inconclusive: 29.1 µM [cytotoxic, single point]
33 | Cc1oc(-c2ccc(Cl)cc2)nc1CN1CCC(C(=O)NCc2ccco2)CC1 | – | active: 9.2 µM
34 | O=C(NNC(=O)c1ccccc1O)c1ccc(S(=O)(=O)Nc2ccccc2)cc1 | – | inconclusive: 25.9 µM [cytotoxic, partial curve, poor fit]
35 | COc1cccc(CNC(=O)CSc2ccc(-c3sc(-c4ccccc4)nc3C)nn2)c1 | – | inconclusive: 29.1 µM [cytotoxic, single point]
36 | Oc1c(Br)cc(Br)cc1/C=N/Nc1ccc(Cl)nn1 | inactive: -17.3% | –
37 | O=C(c1ccc2c(c1)CCC2)N1CCN(Cc2c(F)cccc2Cl)CC1 | – | inconclusive: 10.3 µM [cytotoxic, partial curve, poor fit]
38 | CC(=O)N1N=C(c2ccc3ccccc3c2)OC12CCCC2 | – | inconclusive: 29.1 µM [cytotoxic, single point]
39 | COc1cccc(/C=N/NC(=O)CNC(=O)c2cccs2)c1O | inactive: -28% | –
40 | COc1ccc(Cn2c(C3CC3)nc3ccc(NC(C)=O)cc3c2=O)cc1 | inactive: -27.1% | –
41 | COc1cc(C=C2CCCC(=Cc3ccc(OCC4CO4)c(OC)c3)C2=O)ccc1OCC1CO1 (stereo not drawn) | – | inconclusive: 25.9 µM [cytotoxic, single point]
42 | Cc1ccc(NC(=O)C2CCCN(C(=O)c3ccc(Cl)cc3)C2)cc1 (stereo not drawn) | – | inconclusive: 14.6 µM [cytotoxic, partial curve]
43 | Cc1cc(C)cc(-n2c(SCC(=O)N3CCc4ccccc43)nc3c([nH]c4ccccc43)c2=O)c1 | inactive: 0% | –

Some of the entries so far, comma-delimited:
Row,Structure (SMILES),"activity change, negative = cytotoxicity",Potency
30,CSc1ccc(CN(C)C(=O)c2ccc(S(=O)(=O)Nc3ccccc3)cc2)cc1,–,"inconclusive: 25.9 µM [cytotoxic, single point]"
31,O=[N+]([O-])c1ccccc1S(=O)(=O)N1CCN(Cc2ccc3c(c2)OCO3)CC1,–,"inconclusive: 29.1 µM [cytotoxic, single point]"
32,Cc1cccc(-c2noc(CCCC(=O)NC3CCCCC3)n2)c1,–,"inconclusive: 29.1 µM [cytotoxic, single point]"

— PubChem BioAssay AID1347076 (National Center for Advancing Translational Sciences (NCATS), 2019)
